Data as given in PubChem BioAssay AID1508588 (Peter MacCallum Cancer Centre, 2020)

- Assay: 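Knock-downs boosting vemurafenib effects on melanoma cell growth or lactate release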 (primary screen)
- Cell system: human WM266.4 melanoma cells (BRAF V600 mutant)
- Knock-down reagent: siRNA pool against human genes, 40 nM
- Duration: 96 h from transfection to read-out
- Challenge: vemurafenib 300 nM (about IC25), added 48 h after transfection, for 48 h; comparison arm got DMSO vehicle only
- Read-out: 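Ratios to non-targeting siRNA for cell gain, counted as DAPI nuclei after minus before drug and averaged over two replicates, and for absorbance-read medium lactate per cell; both binned into fold-change classes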
- Scale: cell gain with vemurafenib: higher = more cell gain than with non-targeting siRNA; lactate per cell with vemurafenib: higher = more lactate made per cell
- Rule for the call: 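a knock-down counts as enhancing when its fold-change classes with vehicle and with vemurafenib, taken together, show a stronger drug effect on cell gain or lactate per cell; exact class pairs not stated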
- Calls: active = enhances vemurafenib effect; inactive = no enhancement seen
The deposit covers about 18,000 reagents; below is a part drawn at random. In the full data, 790 (4.4%) got an active call. 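Calls rest on a combination of fold-change classes in drug and vehicle arms, not all shown here.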 A reagent listed more than once was tested more than once; the source does not tell the runs apart. No sequences are given here.

GPR52 (GeneID 9293) — cell gain with vemurafenib = 0.86; lactate per cell with vemurafenib = 1.14; Call = inactive
LRRC14 (GeneID 9684) — cell gain with vemurafenib = 0.3; lactate per cell with vemurafenib = 1.5; Call = inactive
DUSP3 (GeneID 1845) — cell gain with vemurafenib = 0.85; lactate per cell with vemurafenib = 1.14; Call = inactive
JAM3 (GeneID 83700) — cell gain with vemurafenib = 0.82; lactate per cell with vemurafenib = 0.95; Call = inactive
IFNA7 (GeneID 3444) — cell gain with vemurafenib = 0.08; lactate per cell with vemurafenib = 1.17; Call = inactive
EXOSC4 (GeneID 54512) — cell gain with vemurafenib = 0.2; lactate per cell with vemurafenib = 2.24; Call = inactive
NBPF9 (GeneID 400818) — cell gain with vemurafenib = 0.87; lactate per cell with vemurafenib = 0.78; Call = inactive
KRT15 (GeneID 3866) — cell gain with vemurafenib = 1; lactate per cell with vemurafenib = 1.12; Call = inactive
DNPH1 (GeneID 10591) — cell gain with vemurafenib = 0.4; lactate per cell with vemurafenib = 1.01; Call = inactive
CST3 (GeneID 1471) — cell gain with vemurafenib = 0.18; lactate per cell with vemurafenib = 1.19; Call = inactive
ZC3H3 (GeneID 23144) — cell gain with vemurafenib = 0.95; lactate per cell with vemurafenib = 0.83; Call = inactive
SHOC1 (GeneID 158401) — cell gain with vemurafenib = 0.54; lactate per cell with vemurafenib = 0.68; Call = inactive
PAK6 (GeneID 56924) — cell gain with vemurafenib = 0.38; lactate per cell with vemurafenib = 1.12; Call = inactive
ITPRIPL1 (GeneID 150771) — cell gain with vemurafenib = 0.57; lactate per cell with vemurafenib = 0.99; Call = inactive
PRKAR1B (GeneID 5575) — cell gain with vemurafenib = -0.08; lactate per cell with vemurafenib = 2.47; Call = inactive
MARCKSL1 (GeneID 65108) — cell gain with vemurafenib = 0.37; lactate per cell with vemurafenib = 1.12; Call = inactive
PYY (GeneID 5697) — cell gain with vemurafenib = 0.44; lactate per cell with vemurafenib = 0.84; Call = inactive
COL22A1 (GeneID 169044) — cell gain with vemurafenib = 0.63; lactate per cell with vemurafenib = 0.48; Call = inactive
H2AB2 (GeneID 474381) — cell gain with vemurafenib = 1.18; lactate per cell with vemurafenib = 1.02; Call = inactive
SETX (GeneID 23064) — cell gain with vemurafenib = 0.47; lactate per cell with vemurafenib = 0.57; Call = inactive
TLR4 (GeneID 7099) — cell gain with vemurafenib = 0.08; lactate per cell with vemurafenib = 1.27; Call = inactive
RIMBP2 (GeneID 23504) — cell gain with vemurafenib = 1.07; lactate per cell with vemurafenib = 1.08; Call = inactive
ZNF592 (GeneID 9640) — cell gain with vemurafenib = 1.07; lactate per cell with vemurafenib = 0.84; Call = inactive
UBXN2A (GeneID 165324) — cell gain with vemurafenib = 0.72; lactate per cell with vemurafenib = 0.82; Call = inactive
SLC61A1 (GeneID 84975) — cell gain with vemurafenib = 0.38; lactate per cell with vemurafenib = 1.42; Call = inactive
KIAA0586 (GeneID 9786) — cell gain with vemurafenib = 0.3; lactate per cell with vemurafenib = 0.51; Call = inactive
RAB30 (GeneID 27314) — cell gain with vemurafenib = 1.11; lactate per cell with vemurafenib = 0.95; Call = inactive
PLAA (GeneID 9373) — cell gain with vemurafenib = -0.01; lactate per cell with vemurafenib = 1.28; Call = inactive
FLVCR1 (GeneID 28982) — cell gain with vemurafenib = 0.65; lactate per cell with vemurafenib = 1.05; Call = inactive
S100A1 (GeneID 6271) — cell gain with vemurafenib = 0.14; lactate per cell with vemurafenib = 2.02; Call = inactive
BPNT2 (GeneID 54928) — cell gain with vemurafenib = 0.56; lactate per cell with vemurafenib = 0.44; Call = inactive
POU2F3 (GeneID 25833) — cell gain with vemurafenib = 0.63; lactate per cell with vemurafenib = 1.54; Call = inactive
ABHD17C (GeneID 58489) — cell gain with vemurafenib = 0.28; lactate per cell with vemurafenib = 1.02; Call = inactive
SLC5A9 (GeneID 200010) — cell gain with vemurafenib = 0.71; lactate per cell with vemurafenib = 0.83; Call = inactive
GON7 (GeneID 84520) — cell gain with vemurafenib = 0.66; lactate per cell with vemurafenib = 0.68; Call = inactive
STARD4 (GeneID 134429) — cell gain with vemurafenib = 0.14; lactate per cell with vemurafenib = 1.84; Call = inactive
XAGE2 (GeneID 9502) — cell gain with vemurafenib = 0.49; lactate per cell with vemurafenib = 0.82; Call = inactive
SERPINA7 (GeneID 6906) — cell gain with vemurafenib = 0.66; lactate per cell with vemurafenib = 2.34; Call = inactive
PRL (GeneID 5617) — cell gain with vemurafenib = 0.79; lactate per cell with vemurafenib = 0.59; Call = inactive
NPR2 (GeneID 4882) — cell gain with vemurafenib = 0.98; lactate per cell with vemurafenib = 0.67; Call = inactive
NPR2 (GeneID 4882) — cell gain with vemurafenib = 0.78; lactate per cell with vemurafenib = 1.06; Call = inactive
ITSN2 (GeneID 50618) — cell gain with vemurafenib = 0.01; lactate per cell with vemurafenib = 2.21; Call = inactive
TIMM10B (GeneID 26515) — cell gain with vemurafenib = 0.54; lactate per cell with vemurafenib = 1.32; Call = inactive
CENPBD1P (GeneID 92806) — cell gain with vemurafenib = 0.85; lactate per cell with vemurafenib = 1.75; Call = inactive
PDSS2 (GeneID 57107) — cell gain with vemurafenib = 0.85; lactate per cell with vemurafenib = 1.46; Call = inactive
SMAD7 (GeneID 4092) — cell gain with vemurafenib = 1.13; lactate per cell with vemurafenib = 0.96; Call = inactive
ESPL1 (GeneID 9700) — cell gain with vemurafenib = 0.21; lactate per cell with vemurafenib = 1.28; Call = inactive
OSM (GeneID 5008) — cell gain with vemurafenib = 0.48; lactate per cell with vemurafenib = 1.24; Call = inactive
PEX19 (GeneID 5824) — cell gain with vemurafenib = 0.89; lactate per cell with vemurafenib = 0.73; Call = inactive
TARBP2 (GeneID 6895) — cell gain with vemurafenib = 0.63; lactate per cell with vemurafenib = 0.51; Call = inactive
DNTT (GeneID 1791) — cell gain with vemurafenib = 0.38; lactate per cell with vemurafenib = 0.62; Call = inactive
MASTL (GeneID 84930) — cell gain with vemurafenib = 0.09; lactate per cell with vemurafenib = 1.5; Call = inactive
